{"source": "patent US9376466B2", "about": "“Peptide inhibitors of caspase 2 activation” (The Trustees of Columbia University in the city of New York, priority 2011, dated 2016)", "binders": {"B1": {"name": "Caspase 2 (enzyme, rat, UniProt P55215 2-452, looked up)", "chain": "AASSGRSQSSLHRKGLMAADRRSRILAVCGMHPDHQETLKKNRVVLAKQLLLSELLEHLLEKDIITLEMRELIQAKGGSFSQNVELLNLLPKRGPQAFDAFCEALRETRQGHLEDLLLTTLSDIQHILPPLSCDYDSSLPFSVCESCPPHKQSRLSTDTMEHSLDNGDGPPCLQVKPCTPEFYQAHYQLAYRLQSQPRGLALVMSNVHFTGEKDLEFRSGGDVDHTTLVTLFKLLGYNVHVLYDQTAQEMQEKLQNFAQLPAHRVTDSCIVALLSHGVEGGIYGVDGKLLQLQEVFRLFDNANCPSLQNKPKMFFIQACRGDETDRGVDQQDGKNHAQSPGCEESDAGKEELMKMRLPTRSDMICGYACLKGNAAMRNTKRGSWYIEALTQVFSERACDMHVADMLVKVNALIKEREGYAPGTEFHRCKEMSEYCSTLCQQLYLFPGYPPT"}}, "key": {"[1]": {"target": "RAIDD (RIP-associated ICH-1/CED-3-homologous protein with a death domain) (rat)", "test": "co-immunoprecipitation of endogenous RAIDD, Western blot for Caspase 2 (legend of FIG. 13)"}, "[2]": {"target": "RAIDD (RIP-associated ICH-1/CED-3-homologous protein with a death domain) (rat)", "test": "co-immunoprecipitation of endogenous RAIDD (anti-CRADD beads) from primary rat hippocampal neuron lysates, Western blot for Caspase 2"}}, "note": "Results are given in words; binding and its absence hold for the method and conditions named. Binding seen in cells or lysates may run through a third protein. Some results given as binding are weak or reduced against the parent protein; the word gives no strength."}
{"binder": "B1", "values": [{"measurement": "binding", "setting": "[1]", "result": "binds"}, {"measurement": "binding", "setting": "[2]", "result": "binds"}]}
